Assay results from US20160000865A1.
No constants are given. Whether binding was seen depends on the method and setting. In cells and extracts the contact can be indirect. Some results given as binding are weak or reduced against the parent protein; the word gives no strength. For part of these data: Sequences can lack the tags named with a protein.

Sequences of proteins named here, by UniProt entry; tags and fusion partners are left off. A change or cut given only in a name is not applied to a line headed by its entry.
UniProt Q2MKA7: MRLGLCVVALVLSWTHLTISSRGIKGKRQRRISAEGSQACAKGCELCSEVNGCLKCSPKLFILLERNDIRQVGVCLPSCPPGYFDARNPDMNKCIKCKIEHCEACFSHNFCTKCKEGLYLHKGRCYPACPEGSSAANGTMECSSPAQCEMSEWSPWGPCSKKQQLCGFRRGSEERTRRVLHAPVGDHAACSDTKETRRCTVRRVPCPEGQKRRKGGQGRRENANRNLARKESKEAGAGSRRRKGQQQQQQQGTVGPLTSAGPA

Experiments:
[1] = target: T1, Recombinant human Robo1 encoding the extracellular five Ig-like domains fused with the Fc domains of human IgG1 (human) (UniProt Q9Y6N7+P01857); experiment: Protein A bead pulldown with Robo1-Fc, immunoblot (FIG. 15F)
[2] = target: T1, Recombinant human Robo1 encoding the extracellular five Ig-like domains fused with the Fc domains of human IgG1 (human); experiment: Protein A bead pulldown, immunoblot for His
[3] = target: T2, Extracellular Ig4 domain of Robo1 fused with GST (human) (UniProt Q9Y6N7); experiment: glutathione-Sepharose pulldown with GST-Ig1-5, immunoblot (FIG. 15G)
T2 sequence (looked up): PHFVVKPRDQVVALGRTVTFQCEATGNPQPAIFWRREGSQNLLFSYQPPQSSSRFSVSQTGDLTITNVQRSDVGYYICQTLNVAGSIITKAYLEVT

[4] = target: T3, Extracellular Ig3 domain of Robo1 fused with GST (human) (UniProt Q9Y6N7); experiment: as above
T3 sequence (looked up): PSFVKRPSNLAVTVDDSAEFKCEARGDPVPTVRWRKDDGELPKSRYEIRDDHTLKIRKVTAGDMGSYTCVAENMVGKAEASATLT

[5] = target: T1, Recombinant human Robo1 encoding the extracellular five Ig-like domains fused with the Fc domains of human IgG1 (human); experiment: Protein A bead pulldown with Robo1-Fc, immunoblot (FIG. 15E)
[6] = target: T2, Extracellular Ig4 domain of Robo1 fused with GST (human); experiment: glutathione-Sepharose pulldown, immunoblot
[7] = target: T3, Extracellular Ig3 domain of Robo1 fused with GST (human); experiment: glutathione-Sepharose pulldown, immunoblot
[8] = target: T1, Recombinant human Robo1 encoding the extracellular five Ig-like domains fused with the Fc domains of human IgG1 (human); experiment: Protein A bead pulldown with Robo1-Fc, rSlit2 and/or rRspo1, immunoblot (FIG. 18B)

Measured: binding

Amino-terminal segment of Rspo1 including two furin-like cysteine-rich domains, fused with 6-His tag (from UniProt Q2MKA7 21-146) (ligand)
binds: [1] | [2]

Recombinant human Rspo1 fused with 6-His (His) tag expressed in Sf9 insect cells (from UniProt Q2MKA7 21-263) (ligand)
not listed: [1]
binds: all other assays above
